According to patent publication US20120121507A1 (NATIONAL RESEARCH COUNCIL OF CANADA, published 2012):
These are yes or no findings as the source states them, for the method shown. Some entries that bind do so weakly or less than the wild type.

The chains behind the UniProt entries cited, without tags or fusion partners. Residues count along the entry.
UniProt P10909, residues 23-449: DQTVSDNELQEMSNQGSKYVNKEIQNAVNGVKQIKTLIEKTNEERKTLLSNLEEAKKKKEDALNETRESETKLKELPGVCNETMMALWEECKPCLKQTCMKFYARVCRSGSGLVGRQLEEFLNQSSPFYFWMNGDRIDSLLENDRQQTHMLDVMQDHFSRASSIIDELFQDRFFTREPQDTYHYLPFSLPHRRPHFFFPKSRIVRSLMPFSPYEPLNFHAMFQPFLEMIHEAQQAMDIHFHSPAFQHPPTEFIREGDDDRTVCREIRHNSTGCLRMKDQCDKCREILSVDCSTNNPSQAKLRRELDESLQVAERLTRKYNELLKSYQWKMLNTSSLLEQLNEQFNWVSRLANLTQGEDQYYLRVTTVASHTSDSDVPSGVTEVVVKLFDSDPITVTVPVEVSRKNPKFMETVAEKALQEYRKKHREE

How the values were obtained:
[1] = molecular target: T1, recombinant human clusterin (human, UniProt P10909 23-449); test: SPR, rh-clusterin flowed over immobilized P3376R
T1 construct: also called rhCLU; rh-clusterin

[2] = molecular target: T1, recombinant human clusterin; test: SPR, rh-clusterin 11 nM-1.4 µM over immobilized P3376R, curvilinear Scatchard plot
[3] = molecular target: T1, recombinant human clusterin; test: SPR
[4] = molecular target: T1, recombinant human clusterin; test: STD-NMR
[5] = molecular target: T1, recombinant human clusterin; test: SPR, summary of FIGS. 5-7
[6] = molecular target: T1, recombinant human clusterin; test: STD-NMR, ~1:30 protein:peptide
[7] = molecular target: T1, recombinant human clusterin; test: SPR, rhCLU flowed over immobilized P3376
[8] = molecular target: T1, recombinant human clusterin; test: STD-NMR, 0.15 mM peptide with rh-clusterin at about 1:30 protein:peptide
[9] = molecular target: T1, recombinant human clusterin; test: SPR, rh-clusterin flowed over immobilized P3375R
[10] = molecular target: T1, recombinant human clusterin; test: SPR, rh-clusterin 11 nM-1.4 µM over immobilized P3375R, curvilinear Scatchard plot
[11] = molecular target: T1, recombinant human clusterin; test: SPR, rhCLU flowed over immobilized P3375
[12] = molecular target: T1, recombinant human clusterin; test: SPR, rhCLU flowed over immobilized P3378
[13] = molecular target: T1, recombinant human clusterin; test: STD-NMR, P3378 with and without rh-clusterin
[14] = molecular target: T1, recombinant human clusterin; test: SPR, rh-clusterin alone flowed over immobilized P3378
[15] = molecular target: T1, recombinant human clusterin; test: STD-NMR, 0.15 mM peptide with and without rh-clusterin at about 1:30 protein:peptide
[16] = molecular target: T1, recombinant human clusterin; test: SPR, rh-clusterin preincubated with mAb 16B5 (ratio 1:1.7) flowed over immobilized P3378

Row | binding [3] | binding [4] | binding [5] | binding [6] | binding [8] | Binder | further results
1 |  |  |  |  |  | AWHTLASTSLAPSGSGC [P3376R, randomized version of P3376 (…)] | binding [1]: binds; binding [2]: binds
2 | binds | binds | binds | binds | binds | SHALPLTWSTAASGSGC (In SPR it was immobilised through the C-terminal Cys (thioether); In STD-NMR it was free in solution) [P3376 synthetic peptide (SHALPLTWSTAA with C-terminal SGSGC extension)] | binding [7]: binds
3 |  |  |  |  |  | LSLYHTNTQFWQSGSGC (Immobilised on the SPR chip) [P3375R, randomized version of P3375 (LSLYHTNTQFWQSGSGC)] | binding [9]: binds; binding [10]: binds
4 | binds | binds | binds | binds | binds | NTYWSQLLHFQTSGSGC (In SPR it was immobilised through the C-terminal Cys (thioether); In STD-NMR it was free in solution) [P3375 synthetic peptide (NTYWSQLLHFQT with C-terminal SGSGC extension)] | binding [11]: binds
5 | binds | binds | binds | binds |  | HPLSKHPYWSQPSGSGC (Synthesised by Fmoc chemistry; In SPR it was immobilised on a CM5 chip by a thioether bond from the C-terminal Cys to maleimide; In STD-NMR it was free in solution) [P3378 synthetic peptide (HPLSKHPYWSQP with C-terminal SGSGC extension)] | binding [12]: binds; binding [13]: binds; binding [14]: binds; binding [15]: binds; binding [16]: binds
